The text below walks through data of article PMC10521530.

Results are given in words; binding and its absence hold for the method and conditions named. Binding seen in cells or lysates may run through a third protein. These calls come from enrichment with a bait or labelling near it, and not all partners need be listed.

This test deals with T1, Transmembrane and tetratricopeptide repeat (TPR) repeat-containing protein 3 (TMTC3) (human (endogenous in KYSE450, KYSE410, KYSE180)) (UniProt Q6ZXV5).
T1 sequence: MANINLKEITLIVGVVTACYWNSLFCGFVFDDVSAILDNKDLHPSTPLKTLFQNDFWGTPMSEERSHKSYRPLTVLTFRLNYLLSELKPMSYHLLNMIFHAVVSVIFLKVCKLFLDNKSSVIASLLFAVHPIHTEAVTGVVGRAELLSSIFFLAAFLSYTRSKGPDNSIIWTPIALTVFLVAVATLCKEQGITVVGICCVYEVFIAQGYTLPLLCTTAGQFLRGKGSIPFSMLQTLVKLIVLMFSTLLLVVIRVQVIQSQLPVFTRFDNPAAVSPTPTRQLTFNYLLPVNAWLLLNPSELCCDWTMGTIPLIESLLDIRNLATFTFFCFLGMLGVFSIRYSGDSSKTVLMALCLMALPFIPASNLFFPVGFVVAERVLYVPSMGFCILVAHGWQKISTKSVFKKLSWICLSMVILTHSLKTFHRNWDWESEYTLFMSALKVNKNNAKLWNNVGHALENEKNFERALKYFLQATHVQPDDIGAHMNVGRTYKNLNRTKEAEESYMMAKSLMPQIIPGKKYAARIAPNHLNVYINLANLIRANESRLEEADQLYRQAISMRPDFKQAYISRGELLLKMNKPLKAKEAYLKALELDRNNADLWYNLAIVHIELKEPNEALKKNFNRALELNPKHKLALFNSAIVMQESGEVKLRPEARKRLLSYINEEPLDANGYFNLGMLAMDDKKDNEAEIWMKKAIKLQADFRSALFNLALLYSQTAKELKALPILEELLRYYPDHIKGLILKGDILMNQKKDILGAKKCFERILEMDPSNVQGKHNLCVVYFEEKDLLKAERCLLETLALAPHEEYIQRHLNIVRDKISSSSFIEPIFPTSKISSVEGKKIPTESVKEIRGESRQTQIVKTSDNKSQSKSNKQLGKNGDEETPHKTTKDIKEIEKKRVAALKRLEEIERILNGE
In words: affinity purification with mass spectrometry; immunoprecipitation with TMTC3 antibody from KYSE450 cells; silver-stained SDS-PAGE; differential band around 55 kDa between IgG and TMTC3 group analysed by mass spectrometry.

With “inosine-5'-monophosphate dehydrogenase 2 (IMPDH2) (from UniProt P12268 1-514) (enzyme)”, the binding entry was “binds”.
